From publication doi:10.1101/2024.08.31.609994 come the findings set out here.

Amino acid sequences for entries named in this document (tags omitted).
UniProt P32302: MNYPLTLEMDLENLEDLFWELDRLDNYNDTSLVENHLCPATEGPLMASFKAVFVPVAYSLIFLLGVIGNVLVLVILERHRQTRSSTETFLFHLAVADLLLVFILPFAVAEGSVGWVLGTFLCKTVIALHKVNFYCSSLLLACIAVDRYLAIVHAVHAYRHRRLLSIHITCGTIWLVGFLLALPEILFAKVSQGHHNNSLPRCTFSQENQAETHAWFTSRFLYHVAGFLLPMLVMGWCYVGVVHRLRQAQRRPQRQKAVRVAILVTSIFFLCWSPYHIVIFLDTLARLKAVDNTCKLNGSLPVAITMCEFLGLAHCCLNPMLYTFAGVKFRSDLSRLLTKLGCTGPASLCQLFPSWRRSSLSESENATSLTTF

This assay has as its target T1, Chemokine (C-X-C motif) ligand 13 (CXCL13) (human (endogenous in Raji)) (UniProt O43927).
T1 sequence: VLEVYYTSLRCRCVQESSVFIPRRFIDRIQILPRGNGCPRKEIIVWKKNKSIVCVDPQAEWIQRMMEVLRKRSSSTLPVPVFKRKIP
Briefly: co-IP.

These are yes or no findings as the source states them, for the method shown. In cells and extracts the contact can be indirect. Some results given as binding are weak or reduced against the parent protein; the word gives no strength.

For “C-X-C chemokine receptor type 5 (CXCR5) (from UniProt P32302 1-372)”, the binding result was “binds”.
